# From PubChem BioAssay AID1347423 (Functional Genomics Laboratory (NCATS/FGL), 2020)
# The whole screen tested about 52,000 sequences, of which about 210 (0.4%) were called active.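 Rule for the calls: active = gene whose silencing raises cell survival under the drug, median off-target-corrected z-score across its silencing RNAs 2 or more; inactive = the rest.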 The list shows a part of the results.
# Experiment: Resistance to Poly (ADP-Ribose) Polymerase inhibitor: Gene Identification via Genome-wide siRNA Screen
# Conditions: mouse BRCA2 R2336H ES cells, olaparib, CellTiter-Glo viability; stronger effect = higher value
# Outline: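 Mouse BRCA2 R2336H ES cells were reverse-transfected with siRNA (20 nM final), treated at 48 h with 500 nM olaparib, and read by CellTiter-Glo after 72 h. Scores: MAD-based z per siRNA, median per gene, seed off-target correction.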
row,Sequence,z-score
1,CAGCGAUCCAAGUACCUGGTT against Mbp,inactive: -1.94
2,GCAUGUUCGUGGAAGUACUTT against 1700083M11Rik,inactive: -0.892
3,GGCGCAAGCAAAGAAACAUTT against Pbx3,inactive: 0.582
4,CGGUCACAUCUCUACUGCATT against Tas2r138,inactive: -0.656
5,GGGAUUGACAUUGGAUGGGTT against Gabarap,inactive: -0.0443
6,GCAUUCAUACAUGUAACAGTT against 4833422F06Rik,inactive: 0.619
7,GGACCCUGUUCUUUGCUUATT against Npn3,inactive: 0.646
8,GGAUCACUGCUUUUACCACTT against Adam19,inactive: -0.43
9,CCAGUAGGACUAGCAACACTT against Gast,inactive: 0.913
10,GGCUGGAAAGGAGGAUACATT against Fbxl19,inactive: 0.362
11,CCGCUGGUGUGAUCACAAUTT against Slc5a2,inactive: 0.684
12,GUGUUUUAGUGCGAGUCCUTT against Klrb1a,inactive: 0.926
13,GGGCAAAACAGAAAUUCAATT against Sypl,inactive: 2.11
14,CGACAGUCUAGCAUGUAACTT against Vmd2,inactive: -1.28
15,GGCAAUUGUCUCAUUCUGATT against Olfr631,inactive: -1.67
16,GGGUUGACCACUAUUUCUGTT against Olfr1338,inactive: -0.6
17,GGAGAUCAAUGAGAAGAUCTT against Akap3,inactive: 0.111
18,GGCAAUCCCACAUCCUCGATT against 1200009B18Rik,inactive: 0.184
19,GGCUUAAUUGUUUGUGUGATT against Slc18a2,inactive: 0.483
20,GGGAAAAGUAUCCUCUGUUTT against Olfr877,inactive: -1.81
21,GGAGAACAGACACAGGGUGTT against Dlg7,inactive: -2.13
22,GGACCUCAGAGAAGUGCAGTT against Ssbp4,inactive: -0.636
23,GGACAUCAACGACAACAAUTT against Pcdhgc3,inactive: 1.54

# 18 entries from above, as tab-separated lines:
row	Sequence	z-score
1	CAGCGAUCCAAGUACCUGGTT against Mbp	inactive: -1.94
3	GGCGCAAGCAAAGAAACAUTT against Pbx3	inactive: 0.582
5	GGGAUUGACAUUGGAUGGGTT against Gabarap	inactive: -0.0443
6	GCAUUCAUACAUGUAACAGTT against 4833422F06Rik	inactive: 0.619
7	GGACCCUGUUCUUUGCUUATT against Npn3	inactive: 0.646
8	GGAUCACUGCUUUUACCACTT against Adam19	inactive: -0.43
9	CCAGUAGGACUAGCAACACTT against Gast	inactive: 0.913
10	GGCUGGAAAGGAGGAUACATT against Fbxl19	inactive: 0.362
12	GUGUUUUAGUGCGAGUCCUTT against Klrb1a	inactive: 0.926
14	CGACAGUCUAGCAUGUAACTT against Vmd2	inactive: -1.28
15	GGCAAUUGUCUCAUUCUGATT against Olfr631	inactive: -1.67
16	GGGUUGACCACUAUUUCUGTT against Olfr1338	inactive: -0.6
17	GGAGAUCAAUGAGAAGAUCTT against Akap3	inactive: 0.111
18	GGCAAUCCCACAUCCUCGATT against 1200009B18Rik	inactive: 0.184
19	GGCUUAAUUGUUUGUGUGATT against Slc18a2	inactive: 0.483
20	GGGAAAAGUAUCCUCUGUUTT against Olfr877	inactive: -1.81
21	GGAGAACAGACACAGGGUGTT against Dlg7	inactive: -2.13
22	GGACCUCAGAGAAGUGCAGTT against Ssbp4	inactive: -0.636

# The results go on.

row,Sequence,z-score
1,GGGUUUUUUUAGAGAGAUUTT against 1700017I11Rik,inactive: 0.102
2,GAGCCAUAUACCUCGUCCUTT against 2700087H15Rik,inactive: 0.598
3,CCCUGGAGUAAACUCAAAUTT against Onecut2,inactive: 1.2
4,GCUAGCAGAGAUACAAUGUTT against A430107D22Rik,inactive: -2.37
5,CGGAAACCUUGCACAAUAUTT against Blcap,inactive: 1.25
6,CCACCACAGCUGAAGUCAGTT against Fen1,inactive: 0.72
7,GCCUUACCAUACCAUGGAGTT against Ltap,inactive: -1.37
8,GCAGCUUAGCCCAAAGAUCTT against Gstm6,inactive: -0.849
9,GCCAGAAGUGAAAAUCGAATT against Fkbp14,inactive: -0.39
10,CCAAUCAGACACCUACAAGTT against Myo1f,inactive: -0.299
11,GCUUGACACAAGAGAUUGATT against BC031593,inactive: -0.149
12,GGAAGAGUUUAUGAUCCUCTT against Esrrb,inactive: 0.472
13,GCAGCGAAAGGAUUGACAATT against Elovl5,inactive: 0.322
14,CCACUGUAAAAGAUUUGGCTT against A730045E13Rik,inactive: -0.559
15,CUCCUAUGGAACAUCUCCATT against Ndufs6,inactive: 1.86
16,CGGGUAUGUGACUGUCAGUTT against D11Moh34,inactive: -1.35
17,GCAAGAGCUGAGUACUCUGTT against Eraf,inactive: 3.28
18,GGAAAAGUUCAGAGCUUAUTT against 1190005F20Rik,inactive: -0.951
19,GCAACAAUUGAGCAAUUCATT against Bag1,inactive: -0.804
20,GGCUGGAAGAUGACCUGCATT against Tnni3k,inactive: -0.541
21,GGCCAGUCCAAAGACCAUCTT against Hsd3b7,inactive: 1.06
22,GGUUCUAUCUACCUACAGGTT against 9830123M21Rik,inactive: 0.537
23,GCAAGGCGCAUAAUGGGAGTT against Alox5ap,inactive: 0.0845

row,Sequence,z-score
1,CCCGCUGUUUACACUAACGTT against 1200016C12Rik,inactive: 0.0243
2,GGGAGUCUACACAUUAUAUTT against Ceacam10,inactive: 1.01
3,GCCCUACCAAAGACACUAGTT against Lrch4,inactive: 0.462
4,GGAGGGUAAGACAAUGCACTT against Tmem17,inactive: -0.354
5,GGUUUUUGAUCUUUGUGUCTT against Nr2c1,inactive: 1.47
6,CGCAUGCUUCGGUACAUCATT against H2afy,inactive: 0.796
7,CCAUGACCAGGAUGGAUCATT against Hcr,inactive: -0.422
8,GGGCUUAUUCUGUUAAUAGTT against Mttp,inactive: 0.298
9,GCUUGUGGUCUUUAUCUUCTT against Olfr1490,inactive: 0.325
10,GCUGAUUUAUAACAGGCGUTT against 4931440N07Rik,inactive: -0.452
11,GGGUUCCAUAUGAUUGCUCTT against St18,inactive: -1.26
12,GGCAAGGAUUUGUGUUUGCTT against C78915,inactive: 1.18
13,GGAAUUAAAAGAGCUGGGCTT against Sepn1,inactive: 0.443
14,CCCAUGGUCACUUAUAUAUTT against Jarid2,inactive: 0.363
15,GCCUGUGCCUUUUGAAUUCTT against 0610010K06Rik,inactive: 0.511
16,CCAAUUCAUGGUGUUCUUUTT against H2-Aa,inactive: 0.625
17,CGGCAAUGCGUUUCCUUUUTT against Lama4,inactive: 0.402
18,GGAACAACAAAAAUUCCAATT against Tor1b,inactive: -0.593
19,GGCAGAAGCCUAAAACGGUTT against Nudt2,inactive: 0.00231
20,CCAUACAAUAAGAGUGCUATT against Dcir2,inactive: -1.61
21,GGGCUUCUCUUUGCACUCUTT against Olfr1366,inactive: 0.993
